Assay results reported in article PMC7083938 (2020).

B1: mNELL2 EGF1-6 WT [mouse] / biotinylated mouse Robo3 FN1–3 (Avi-tagged) [modified: biotin on the Avi-tag (BirA); biotin on the Avi-tag (BirA)] [mouse] (parent complex)
chain 1: GYDFCSEKHTCMENSVCRNLNDRAVCSCRDGFRALREDNAYCEDIDECAEGRHYCRENTMCVNTPGSFMCICKTGYIRIDDYSCTEHDECLTNQHNCDENALCFNTVGGHNCVCKPGYTGNGTTCKAFCKDGCRNGGACIAANVCACPQGFTGPSCETDIDECSEGFVQCDSRANCINLPGWYHCECRDGYHDNGMFAPGGESCEDIDECGTGRHSCTNDTICFNLDGGYDCRCPHGKNCT
chain 2: PPSQPIVTEVTANSITLTWKPNPQSGATATSYVIEAFSQAAGNTWRTVADGVQLETYTISGLQPNTIYLFLVRAVGAWGLSEPSPVSEPVQTQDSSLSRPAEDPWKGQRGLAEVAVRMQEPTVLGPRTLQVSWTVDGPVQLVQGFRVSWRIAGLDQGSWTMLDLQSPHKQSTVLRGLPPGAQIQIKVQVQGQEGLGAESPFVTRSIPEEAPSGPPQGVAVALGGDRNSSVTVSWEPPLPSQRNGVITEYQIWCLGNESRFHLNRSAAGWARSVTFSGLLPGQIYRALVAAATSAGVGVASAPVLVQLPFPPA

Variants of: B1
Experiment: SPR; value at the highest analyte concentration of this mutant, about 90 µM; wild type not shown at this concentration; read off a plot

Row | response | Variant
1 | ~22 RU | chain 1 L102A, chain 1 F104A

Variants of: B1
Experiment: SPR; value at about 20 µM analyte (highest concentration shown for the wild type); parent: 220; read off a plot

Row | response | Variant
2 | ~33 RU | chain 1 R52A, chain 1 Y54A
3 | ~11 RU | chain 1 D81A, chain 1 Y82A
4 | ~200 RU | chain 1 V113A
5 | ~190 RU | chain 1 R56A
